Test results from paper PMC10386454 (Pharmaceutics, 2023).
No constants are given. Whether binding was seen depends on the method and setting. Binding seen in cells or lysates may run through a third protein. Some binding calls cover weakened binding; strength is not graded here. For part of these data: Sequences can lack the tags named with a protein.

Amino acid sequences for entries named in this document (tags omitted). A change or cut given only in a name is not applied to a line headed by its entry.
UniProt P48039: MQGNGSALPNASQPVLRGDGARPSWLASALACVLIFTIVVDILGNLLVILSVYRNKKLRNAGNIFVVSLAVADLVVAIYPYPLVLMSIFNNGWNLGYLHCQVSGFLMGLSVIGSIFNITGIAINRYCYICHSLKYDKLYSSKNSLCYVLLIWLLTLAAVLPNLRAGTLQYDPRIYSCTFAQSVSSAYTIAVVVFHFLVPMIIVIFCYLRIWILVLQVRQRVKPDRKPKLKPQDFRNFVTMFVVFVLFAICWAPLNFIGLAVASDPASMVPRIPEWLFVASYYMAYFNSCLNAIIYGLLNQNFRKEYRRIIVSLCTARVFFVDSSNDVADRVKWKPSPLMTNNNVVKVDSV
UniProt P32121: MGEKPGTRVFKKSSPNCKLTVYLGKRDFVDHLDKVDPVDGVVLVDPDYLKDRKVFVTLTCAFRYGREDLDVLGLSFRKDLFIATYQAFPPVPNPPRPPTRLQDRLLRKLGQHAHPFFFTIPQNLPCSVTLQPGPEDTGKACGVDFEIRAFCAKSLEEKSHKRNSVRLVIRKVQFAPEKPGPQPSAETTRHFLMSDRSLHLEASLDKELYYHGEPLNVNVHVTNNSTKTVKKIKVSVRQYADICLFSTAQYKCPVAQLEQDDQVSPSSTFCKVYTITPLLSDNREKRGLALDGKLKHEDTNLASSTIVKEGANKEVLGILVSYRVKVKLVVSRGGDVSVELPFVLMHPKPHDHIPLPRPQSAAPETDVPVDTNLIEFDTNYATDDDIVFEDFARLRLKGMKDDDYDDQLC

Legend:
[1] = biological target: human MT1 receptor fused at its C-terminal part with the small enzyme fragment ProLink tag (human) (UniProt P48039); test: split reporter; PathHunter β-galactosidase complementation in HEK 293 cells; β-arrestin2 fused to the β-gal acceptor, receptor fused to ProLink; cells stimulated with a saturating or increasing concentration of melatonin or plant extracts for 2-3 h at 37 °C 5% CO2; luminescence read after 60 min at room …
[2] = biological target: T1, human MT2 receptor fused at its C-terminal part with the small enzyme fragment ProLink tag (human) (UniProt P49286); test: as above
T1 sequence: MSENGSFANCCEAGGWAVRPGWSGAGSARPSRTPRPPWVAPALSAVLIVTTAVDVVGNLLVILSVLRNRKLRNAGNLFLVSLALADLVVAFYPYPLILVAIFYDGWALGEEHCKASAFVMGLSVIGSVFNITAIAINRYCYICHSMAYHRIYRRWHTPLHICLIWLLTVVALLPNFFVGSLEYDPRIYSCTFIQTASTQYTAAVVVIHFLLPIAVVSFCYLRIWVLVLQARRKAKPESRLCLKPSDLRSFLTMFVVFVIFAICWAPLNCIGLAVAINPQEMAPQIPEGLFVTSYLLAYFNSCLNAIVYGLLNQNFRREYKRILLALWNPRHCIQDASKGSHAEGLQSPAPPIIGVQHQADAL

[3] = biological target: Rluc-MT1 receptor (human) (UniProt P48039); test: FRET or BRET; BRET in HEK293T cells between Rluc-MT1 and YFP-tagged β-arrestin-2; PBS with calcium and magnesium, room temperature, coelenterazine h 5 µM; stimulated with melatonin or extract; net BRET after subtracting cells that express Rluc-MT1 only

fusion protein of β-arrestin2 and the larger N-terminal deletion mutant of β-gal (from UniProt P32121 1-409)
binding [1]: binds | binding [2]: binds

YFP-tagged β-arrestin-2 (from UniProt P32121 1-409)
binding [3]: binds
